PubChem BioAssay AID624256 (NMMLSC, 2012)
Some of the results follow.

Test: induction of myeloid progenitor differentiation, primary screen, cell-based, flow cytometry, MLPCN library (AID 624256);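 note: cells exposed to compound for four days before flow analysis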
Conditions: ER-HoxA9 myeloid progenitors, lysozyme-GFP differentiation, measured here: differentiation confirmed by MAC1 staining, at 10 µM, stronger effect = higher value

Row | Compound | GFP+ MAC1+ double positive [%]
1 | CCOC(=O)Nc1ccc([As](=O)(O)O)c(O)c1 | 0.5
2 | CC1CCNP(=O)(N(CCCl)CCCl)O1 (configuration not stated) | 1.8
3 | COP(=O)(OC)N1CC1c1ccccc1 (configuration not stated) | 0.3
4 | Cc1cc(SC(NC(=O)c2ccccc2)C(Cl)(Cl)Cl)nc(C(C)C)n1 (configuration not stated) | 0.6
5 | CCCCOc1ccc(C(=O)NCC2(N3CCCCC3)CCCCC2)cc1OC | 0.6
6 | CP(=S)(Nn1cnnc1)Oc1ccccc1 (configuration not stated) | 1.1
7 | CCOC(=O)Nc1cccc([As](=O)(O)O)c1 | 1
8 | COc1ccccc1OP(C)(=O)Nc1ccccc1 (configuration not stated) | 0.1
9 | O=P(Nc1ccccn1)(c1cccc2ccccc12)c1cccc2ccccc12 | 0.2
10 | Cc1cc(SC(NC=O)C(Cl)(Cl)Cl)ncn1 (configuration not stated) | 0.1
11 | O=[N+]([O-])c1ccc(Nc2ccc(Oc3ccc([N+](=O)[O-])cc3[N+](=O)[O-])cc2)c([N+](=O)[O-])c1 | 0.3
12 | CP(=O)(Nc1ccccc1Br)Oc1ccccc1 (configuration not stated) | 0.4
13 | CP(=O)(Oc1ccccc1)OC(c1ccccc1)C(F)(F)F (configuration not stated) | 0.5
14 | COC(=O)C1(C)COP(=O)(N2CCCC2)OC1 (configuration not stated) | 1.5
15 | COP1(=S)c2c(C)nn(CCC#N)c2N=C(c2ccc(F)cc2)N1C (configuration not stated) | 3.2
16 | Cc1ccc(Nc2c([N+](=O)[O-])cc([N+](=O)[O-])cc2[N+](=O)[O-])cc1 | 2.9
17 | CP(=O)(Nc1ccc(SC(F)(F)F)cc1)Oc1ccc(Cl)cc1 (configuration not stated) | 0.1
18 | Cc1cc(C)cc(OP(C)(=O)Nc2ccc(SC(F)(F)F)cc2)c1 (configuration not stated) | 0.8
19 | O=C(Nc1ccncc1[N+](=O)[O-])c1ccc([N+](=O)[O-])cc1[N+](=O)[O-] | 0.7

Row | Compound | GFP+ MAC1+ double positive [%]
20 | O=C(COc1ccccc1)OC1CN2CCC1CC2 (configuration not stated) | 0.8
21 | CP(=O)(NC(=O)Nc1ccccc1)Oc1ccccc1 (configuration not stated) | 3.2
22 | CCc1ccc(OP(C)(=O)N2CCN(c3ccc([N+](=O)[O-])cc3)CC2)cc1 (configuration not stated) | 0.3
23 | CSc1ccc(Nc2c([N+](=O)[O-])cc([N+](=O)[O-])cc2[N+](=O)[O-])cc1 | 0.7
24 | CCOP(C)(=S)SCC(=O)NC(C)C(=O)O (configuration not stated) | 0.7
25 | O=C(OC1CN2CCC1CC2)c1cccc([N+](=O)[O-])c1 (configuration not stated) | 0.6
26 | CCOC(=O)c1ccc(NC(=O)C(C)(CCl)SC)cc1 (configuration not stated) | 0.4
27 | CCOC(=O)c1ccc(NP(C)(=O)Oc2ccc(OC)cc2)cc1 (configuration not stated) | 1.8
28 | O=[N+]([O-])c1cc([N+](=O)[O-])c(O)c([N+](=O)[O-])c1.c1ccc(Oc2ccncc2)cc1 | 1.2
29 | CCC(C)N(CC(C)C)C(=S)SC(NC(C)=O)C(Cl)(Cl)Cl (configuration not stated) | 0.6
30 | CP(=O)(Nc1ccccn1)Oc1ccc(Cl)cc1 (configuration not stated) | 0.6
31 | COc1ccc(C2=NCC(CBr)S2)cc1 (configuration not stated) | 0.5
32 | COc1ccc(OP(C)(=O)Nc2ccc(Br)cc2)cc1 (configuration not stated) | 0.9
33 | CCN(CC)CC(O)COC(=O)C(O)(c1ccccc1)C1CCCCC1 (configuration not stated) | 0.6
34 | CCc1ccc(OP(C)(=O)Nc2cccnc2)cc1 (configuration not stated) | 1.1
35 | O=[N+]([O-])c1cc([N+](=O)[O-])c(CCNc2ccccc2)c([N+](=O)[O-])c1 | 2.1
36 | CP(=O)(Oc1ccccc1)N1CCOC1=O (configuration not stated) | 0.6
37 | O=C(OCCCN1CCCC1)C(O)(c1ccccc1)C1CCCCC1 (configuration not stated) | 0.2
38 | O=[N+]([O-])c1cccc2n[nH]nc12 | 0.6

Row | Compound | GFP+ MAC1+ double positive [%]
39 | CC(=O)N1C2C3N(C(C)=O)C1C1N(C(C)=O)C(C(N1C(C)=O)N3C(C)=O)N2C(C)=O | 0.9
40 | COc1ccccc1OP(C)(=O)Nc1c(C)n(C)n(-c2ccccc2)c1=O (configuration not stated) | 0.7
41 | CP(=O)(Nc1ccc(Cl)cc1)Oc1ccc(F)cc1 (configuration not stated) | 11.8
42 | CCN(/C(=N/P(=O)(N1CCOCC1)N1CCOCC1)N1CCOCC1)c1ccc(OC)cc1 | 1.2
43 | C[N+]1=C2C=CC=CC=C2SC12C([N+](=O)[O-])=CC([N+](=O)[O-])=C[C-]2[N+](=O)[O-] (configuration not stated) | 0.2
44 | COc1ccccc1OP(C)(=O)Nc1ccccc1Br (configuration not stated) | 0.2
45 | CC(C)(C)c1ccc(OP(C)(=O)O)cc1 | 0.9
46 | Nc1ccc([As](=O)(O)c2ccc(N)cc2)cc1 | 0.6
47 | CC1CCN(C(=O)Oc2c(Cl)cc(Cl)c3cccnc23)CC1 | 1
48 | c1cc(-c2nn[nH]n2)ccc1-c1nn[nH]n1 | 0.3
49 | CN(C)C(=O)OCCc1n(C)cc[n+]1C | 0.4
50 | CC(C)c1nc(Nc2ccccc2)n(P(=O)(N(C)C)N(C)C)n1 | 1.5
51 | CC(C)=N/N=C(\N)N[N+](=O)[O-] | 0.2
52 | O=P1(N(CCCl)CCCl)OCCCS1 (configuration not stated) | 1
53 | CP(=O)(OC12CC3CC(CC(C3)C1)C2)OC12CC3CC(CC(C3)C1)C2 | 1.8
54 | CCOC(=O)c1ccc(NP(C)(=O)Oc2ccc(Cl)cc2)cc1 (configuration not stated) | 0.3
55 | CC(C)(C)C(=O)NC(Sc1ccncn1)C(Cl)(Cl)Cl (configuration not stated) | 0.5
56 | O=C(O)CNc1ccc([As](=O)(O)O)cc1 | 0.2
57 | COC(=O)C1(C)COP(=O)(Nc2ccccc2)OC1 (configuration not stated) | 0.8
